This note sets out measurements from ChEMBL document CHEMBL4303122, “Identification of potential treatments for COVID-19 through artificial intelligence-enabled phenomic analysis of human cells infected with SARS-CoV-2” (2020).

Over roughly 1,600 compounds, “Hit score” has its median near 0.13; the highest 2% begin near 0.46. The list shows a part of the results.

The test relates to SARS-CoV-2. Description: Antiviral activity against SARS-CoV-2 (USA-WA1/2020 strain) measured by imaging in HRCE cells at MOI 0.4 after 96 hrs (reported as hit score from 0-1 for on-disease vs off-disease activity: scores >0.6 considered hits). The test is classed as functional, Homo sapiens.
The compound `NC(=O)c1cn(Cc2c(F)cccc2F)nn1` [RUFINAMIDE] yielded a Hit score of 0.1638.

In the case of `OB1OCc2cc(F)ccc21` [TAVABOROLE], the Hit score is recorded as 0.2238.

For the compound `Cc1c(O)cccc1C(=O)N[C@@H](CSc1ccccc1)[C@H](O)CN1C[C@H]2CCCC[C@H]2C[C@H]1C(=O)NC(C)(C)C`, the Hit score was 0.1621.

In the case of `CO[C@@]12[C@H](COC(N)=O)C3=C(C(=O)C(C)=C(N)C3=O)N1C[C@@H]1N[C@@H]12` [MITOMYCIN], the Hit score came to 0.1793.

Compound `Cc1c(OCC(F)(F)F)ccnc1C[S@@+]([O-])c1nc2ccccc2[nH]1` [DEXLANSOPRAZOLE] returned a Hit score of 0.1092.

The compound `N#Cc1cc(NC(=O)C(=O)O)c(Cl)c(NC(=O)C(=O)O)c1` [LODOXAMIDE] registered a Hit score of 0.07153.

In the case of `Nc1ncn([C@H]2C[C@H](O)[C@@H](CO)O2)c(=O)n1` [DECITABINE], the Hit score is -0.05394.

The compound `COc1ccccc1OCC(O)CO` (stereo not drawn) [GUAIFENESIN] registered a Hit score of 0.2008.

`Nc1nc(CC(=O)Nc2ccc(CCNC[C@H](O)c3ccccc3)cc2)cs1` [MIRABEGRON] had a Hit score of 0.07205.

As to `C[C@]12CCC(=O)C[C@@H]1CC[C@@H]1[C@@H]2CC[C@]2(C)[C@@H](O)CC[C@@H]12` [STANOLONE], the Hit score worked out at 0.1952.

With `Oc1c(Cl)cc(Cl)c(Cl)c1Cc1c(O)c(Cl)cc(Cl)c1Cl` [HEXACHLOROPHENE], the Hit score amounted to 0.5286.

`Cc1c(N(C)C)c(=O)n(-c2ccccc2)n1C` [AMINOPYRINE] yielded a Hit score of 0.1344.

Compound `O=C1O[C@H]([C@@H](O)CO)C(O)=C1O` [ASCORBIC ACID] showed a Hit score of 0.06898.

Regarding `Cc1cc(/C=C/C#N)cc(C)c1Nc1ccnc(Nc2ccc(C#N)cc2)n1` [RILPIVIRINE], the Hit score is listed as 0.1167.

Compound `OCC(O)COc1cccc2ccccc12` (stereo not drawn) registered a Hit score of 0.1908.

`COc1ccc(/C=C/C(=O)Nc2ccccc2C(=O)O)cc1OC` came in with a Hit score of 0.2555.

In turn, `CCN(CC)CCNC(=O)c1c(C)[nH]c(/C=C2\C(=O)Nc3ccc(F)cc32)c1C` [SUNITINIB] had a Hit score of 0.1025.

In the case of `Nc1ccncc1` [DALFAMPRIDINE], the Hit score amounted to 0.1111.

Consider `Nc1cc(Cl)c(N=C2NCCN2)c(Cl)c1` [APRACLONIDINE], for which the Hit score turned out to be 0.2069.

Consider `COc1ccc(OC)c(C(O)CNC(=O)CN)c1` (stereo not drawn) [MIDODRINE], for which the Hit score is listed as 0.1739.

Take `CC(S)C(=O)NCC(=O)O` (stereo not drawn) [TIOPRONIN]: the Hit score was 0.1099.

Turning to `C[C@H]1C[C@H]2[C@@H]3CCC4=CC(=O)C=C[C@]4(C)[C@@]3(F)[C@@H](O)C[C@]2(C)[C@@]1(O)C(=O)CO` [BETAMETHASONE], the Hit score worked out at 0.07895.

The compound `O=C(CCc1ccc(O)cc1)c1c(O)cc(O)cc1O` [PHLORETIN] had a Hit score of 0.1024.

For the compound `NC(=O)c1cccc2cn(-c3ccc([C@@H]4CCCNC4)cc3)nc12` [NIRAPARIB], the Hit score came out at 0.06081.

Consider `CC[C@@H](C(N)=O)N1CCCC1=O`, for which the Hit score is reported as 0.04659.

Compound `C=CCN1CCc2nc(N)sc2CC1` [TALIPEXOLE] had a Hit score of 0.06674.

In turn, `COc1cc2nccc(Oc3ccc(NC(=O)Nc4cc(C)on4)c(Cl)c3)c2cc1OC` [TIVOZANIB] had a Hit score of 0.1611.

In turn, `CC(C)(C#N)c1cc(Cn2cncn2)cc(C(C)(C)C#N)c1` [ANASTROZOLE] yielded a Hit score of 0.2057.

On to `CC(=O)c1ccc2c(c1)N(CCCN(C)C)c1ccccc1S2` [ACEPROMAZINE], for which the Hit score was 0.08942.

Consider `C[N+](C)(C)CCO` [CHOLINE], for which the Hit score is 0.1686.

In turn, `CO/N=C(\C(=O)N[C@@H]1C(=O)N2C(C(=O)O)=C(COC(N)=O)CS[C@H]12)c1ccco1` [CEFUROXIME] gave a Hit score of 0.29.

`Nc1ccn([C@H]2CC[C@@H](CO)O2)c(=O)n1` [ZALCITABINE] registered a Hit score of 0.1927.

The compound `COc1cccc(C(=O)CCN[C@@H](C)[C@H](O)c2ccccc2)c1` [OXYFEDRINE] had a Hit score of 0.05957.

Consider `Nc1nc2ccc(OC(F)(F)F)cc2s1` [RILUZOLE], for which the Hit score was found to be 0.1438.

Take `CN1CCC(=C2c3ccccc3CCc3cccnc32)CC1` [AZATADINE]: the Hit score is given as 0.09283.

`COc1ccc2c(c1)c(CC(=O)O)c(C)n2C(=O)c1ccc(Cl)cc1` [INDOMETHACIN]: the Hit score was found to be 0.1032.

As for `OC[C@H]1O[C@H](O[C@]2(CCl)O[C@H](CCl)[C@@H](O)[C@@H]2O)[C@H](O)[C@@H](O)[C@H]1Cl` [SUCRALOSE], the Hit score is listed as 0.1698.

`CO[C@H]1/C=C/O[C@@]2(C)Oc3c(C)c(O)c4c(O)c(cc(O)c4c3C2=O)NC(=O)/C(C)=C\C=C\[C@H](C)[C@H](O)[C@@H](C)[C@@H](O)[C@@H](C)[C@H](OC(C)=O)[C@@H]1C` [RIFAMYCIN] gave a Hit score of 0.1815.

Regarding `CC(=O)OCC(=O)[C@@]1(O)[C@@H](C)C[C@H]2[C@@H]3CCC4=CC(=O)C=C[C@]4(C)[C@@]3(F)[C@@H](O)C[C@@]21C` [BETAMETHASONE ACETATE], the Hit score is given as 0.2562.

The compound `C(=C\c1ccccc1)/CN1CCN(C(c2ccccc2)c2ccccc2)CC1` [CINNARIZINE] yielded a Hit score of 0.3702.

As for `COc1ccc(C(=O)N2CCCC2=O)cc1`, the Hit score was 0.178.

`CN1C2CCCC1CC(NC(=O)c1nn(C)c3ccccc13)C2.Cl` (stereo not drawn) [GRANISETRON HYDROCHLORIDE] gave a Hit score of 0.1701.

With `CCN(CC)CC(=O)Oc1ccc(NC(C)=O)cc1` [PROPACETAMOL], the Hit score came out at 0.2265.

In turn, `Cl.OC(CNCC(O)C1CCc2cc(F)ccc2O1)C1CCc2cc(F)ccc2O1` (stereo not drawn) [NEBIVOLOL HYDROCHLORIDE] returned a Hit score of 0.4783.

`O=C(O)c1cc(/N=N/c2ccc(O)c(C(=O)O)c2)ccc1O` [OLSALAZINE] displayed a Hit score of 0.0313.

With `CC(=O)NCCCS(=O)(=O)O` [ACAMPROSATE], the Hit score was 0.1885.

For the compound `CNC(=O)c1cc(Oc2ccc(NC(=O)Nc3ccc(Cl)c(C(F)(F)F)c3)c(F)c2)ccn1` [REGORAFENIB], the Hit score stood at 0.2806.

`CC[C@@H]1/C=C(\C)C[C@H](C)C[C@H](OC)[C@H]2O[C@@](O)(C(=O)C(=O)N3CCCC[C@H]3C(=O)O[C@H](/C(C)=C/[C@@H]3CC[C@H](Cl)[C@H](OC)C3)[C@H](C)[C@@H](O)CC1=O)[C@H](C)C[C@@H]2OC` [PIMECROLIMUS] yielded a Hit score of 0.2951.
